Laboratory results as given in publication PMC3118324.
No constants are given. Whether binding was seen depends on the method and setting. Binding seen in cells or lysates may run through a third protein. Some binding calls cover weakened binding; strength is not graded here.

Target: truncated rotavirus structural protein VP2 (ΔVP2), bovine rotavirus strain RF (bovine rotavirus strain RF) (UniProt P12472)
Experiment: co-sedimentation; intracellular extracts of yeast PD.U-267 co-expressing ΔVP2, VP6 and VP7; 35% sucrose cushion (112,700 x g, 2 h, 4 C), pellet in TNC buffer (50 mM Tris-HCl pH 8.0, 0.15 M NaCl, 10 mM CaCl2), CsCl isopycnic gradient (0.42 g/mL, 148,930 x g, 18 h, 4°C); bands analysed by immunoblotting, SDS-PAGE, Western blot and negative-stain TEM

truncated rotavirus structural protein VP2 (ΔVP2), bovine rotavirus strain RF (from UniProt P12472 93-880) (domain or fragment)
binding: binds
